Test results reported in paper PMC12686569, “FaMYB63 and FvWYRKY75 Activate FvPR10.14 Boosting Strawberry Immunity Against Powdery Mildew”.
For at least one entry, the source does not settle the construct or the ends of the probe. For some assays here: A negative result means that nothing was seen under these conditions.

Key:
FaMYB63 [1] = test: competition with a labelled probe; settings: mutant competitor against N1 probe did not affect binding; EMSA Kit (Beyotime), according to Wang, Shi, et al. 2022; pH and temperature not stated; recombinant protein; protein details: GST
FaMYB63 [2] = test: EMSA; settings: wild-type competitor distinctly reduced binding; EMSA Kit (Beyotime), according to Wang, Shi, et al. 2022; pH and temperature not stated; recombinant protein; protein details: GST

| Sequence | binding result (FaMYB63 [1]) | binding result (FaMYB63 [2]) |
| --- | --- | --- |
| CATTTTATTTTGTTCACAAGGAGAGAAGGAGCCAATTAGGTACCAAT (double strand) [FvPR10.14-mP (FaMYB63 mutant probe)] | no binding | – |
| CATTTTATTTTGTTCACTTCACCATCCAAAGCCAATTAGGTACCAAT (double strand) [FvPR10.14-P (FaMYB63 probe)] | – | binds |
